From publication PMC9564337 (Cancers, 2022)
Some peptides are written in HELM: one residue between dots, names in brackets for other building blocks, links after the first $.

Columns and labels:
[1] = general procedure: Fmoc solid-phase peptide synthesis; H-Leu-2-ClTrt resin (loading 0.79 mmol/g); 2-ClTrt-Cl resin for 46 and 47; HBTU/HOBt/DIPEA; oxyma/DIC for 11; conditions: hydrotrifluoroacetate (TFA salt); for final HPLC purity: 220 nm
[2] = general procedure: Fmoc solid-phase peptide synthesis; H-Leu-2-ClTrt resin; HBTU/HOBt/DIPEA; oxyma/DIC for 11; conditions: whole synthesis, hydrotrifluoroacetate (TFA salt)

## Nα-(Nα-Methylarginyl)-Nω-{[4-(N-{2-[gallium(III)-4,7,10-tris(carboxymethyl)-1,4,7,10-tetraazacyclododecan-1-yl]acetyl})aminobutyl]aminocarbonyl}Arg-Pro-Tyr-Ile-Leu tris(hydrotrifluoroacetate) [20]
[1]; late stage modification step
  final HPLC purity: > 99%
  step yield: > 99%

## Nα-(Nα-Methylarginyl)-Nω-{[4-(N-{2-[gallium(III)-4,7,10-tris(carboxymethyl)-1,4,7,10-tetraazacyclododecan-1-yl]acetyl})aminobutyl]aminocarbonyl}Arg-Pro-Tyr-α-tert-butyl-Gly-Leu tris(hydrotrifluoroacetate) [19]
[1]; late stage modification step
  final HPLC purity: > 99%
  step yield: 95%

## Nα-Arginyl-Nα-methyl-Nω-{[4-(N-{2-[gallium(III)-4,7,10-tris(carboxymethyl)-1,4,7,10-tetraazacyclododecan-1-yl]acetyl})aminobutyl]aminocarbonyl}Arg-Pro-Tyr-α-tert-butyl-Gly-Leu tris(hydrotrifluoroacetate) [22]
[1]; late stage modification step
  final HPLC purity: 98%
  step yield: 99%

## Nα-Methyl-Nω-({4-N-[4-(4-fluorophenyl)phenylalanyl]aminobutyl}aminocarbonyl)Arg-Arg-Pro-Tyr-α-tert-butyl-Gly-Leu tetrakis(hydrotrifluoroacetate)
[1]; conjugation step
  final HPLC purity: > 99%
  conjugation yield: 46%

## Nα-Methyl-Nω-({8-N-[Nα-(6-N-{2-[4,7,10-tris(carboxymethyl)-1,4,7,10-tetraazacyclododecan-1-yl]acetyl}-aminohexanoyl)-4-(4-fluorophenyl)-phenylalanyl]amino-3,6-dioxaoctyl}aminocarbonyl)Arg-Arg-Pro-Tyr-α-tert-butyl-Gly-Leu
[1]; conjugation step
  final HPLC purity: 99%
  conjugation yield: 69%

## Nα-Methyl-Nω-({8-N-[Nα-(6-N-{2-[gallium(III)-4,7,10-tris(carboxymethyl)-1,4,7,10-tetraazacyclododecan-1-yl]acetyl}-aminohexanoyl)-4-(4-fluorophenyl)-phenylalanyl]amino-3,6-dioxaoctyl}aminocarbonyl)Arg-Arg-Pro-Tyr-α-tert-butyl-Gly-Leu
[1]; late stage modification step
  final HPLC purity: 99%

## Nα-Methyl-Nω-({8-N-[Nα-(6-aminohexanoyl)-4-(4-fluorophenyl)-phenylalanyl]amino-3,6-dioxaoctyl}aminocarbonyl)Arg-Arg-Pro-Tyr-α-tert-butyl-Gly-Leu tetrakis(hydrotrifluoroacetate)
[1]; late stage modification step
  final HPLC purity: > 99%
  step yield: 66%

## Nα-Methyl-Nω-[(4-aminobutyl)aminocarbonyl]Arg-Arg-Pro-β,β-dimethyl-D-Tyr-Ile-Leu tetrakis(hydrotrifluoroacetate)
[2]
  isolated yield: 17%
[1]; whole synthesis
  final HPLC purity: 95%

## Nα-Methyl-Nω-[(4-aminobutyl)aminocarbonyl]Arg-Arg-Pro-β,β-dimethyl-D-Tyr-α-tert-butyl-Gly-Leu tetrakis(hydrotrifluoroacetate)
[2]
  isolated yield: 18%
[1]; whole synthesis
  final HPLC purity: 93%

## Nα-Methyl-Nω-[(4-aminobutyl)aminocarbonyl]Arg-Arg-Pro-β,β-dimethyl-Tyr-Ile-Leu tetrakis(hydrotrifluoroacetate)
[2]
  isolated yield: 25%
[1]; whole synthesis
  final HPLC purity: 97%

## Nα-Methyl-Nω-[(4-aminobutyl)aminocarbonyl]Arg-Arg-Pro-β,β-dimethyl-Tyr-α-tert-butyl-Gly-Leu tetrakis(hydrotrifluoroacetate)
[2]
  isolated yield: 19%
[1]; whole synthesis
  final HPLC purity: 98%

## Nα-Methyl-Nω-{[4-(N-{2-[4,7,10-tris(carboxymethyl)-1,4,7,10-tetraazacyclododecan-1-yl]acetyl})aminobutyl]aminocarbonyl}Arg-Arg-Pro-Tyr-α-tert-butyl-Gly-Leu tetrakis(hydrotrifluoroacetate) [16]
[1]; conjugation step
  final HPLC purity: 99%
  conjugation yield: 75%

## Nα-Methyl-Nω-{[4-(N-{2-[gallium(III)-4,7,10-tris(carboxymethyl)-1,4,7,10-tetraazacyclododecan-1-yl]acetyl})aminobutyl]aminocarbonyl}Arg-Arg-Pro-Tyr-α-tert-butyl-Gly-Leu tris(hydrotrifluoroacetate) [21]
[1]; late stage modification step
  final HPLC purity: > 99%
  step yield: 92%

## Nα-Methyl-Nω-{[4-N-(4-aminomethyl-3-fluorobenzoyl)aminobutyl]aminocarbonyl}Arg-Arg-Pro-Tyr-α-tert-butyl-Gly-Leu tetrakis(hydrotrifluoroacetate)
[1]; late stage modification step
  final HPLC purity: > 99%
  step yield: 24%

## Nα-Methyl-Nω-{[4-N-(Nα-{2-[4,7,10-tris(carboxymethyl)-1,4,7,10-tetraazacyclododecan-1-yl]acetyl}-4-{4-fluorophenyl}phenylalanyl)aminobutyl]aminocarbonyl}Arg-Arg-Pro-Tyr-α-tert-butyl-Gly-Leu tetrakis(hydrotrifluoroacetate)
[1]; conjugation step
  final HPLC purity: > 99%
  conjugation yield: 78%

## Nα-Methyl-Nω-{[4-N-(Nα-{2-[gallium(III)-4,7,10-tris(carboxymethyl)-1,4,7,10-tetraazacyclododecan-1-yl]acetyl}-4-(4-fluorophenyl)phenylalanyl)aminobutyl]aminocarbonyl}Arg-Arg-Pro-Tyr-α-tert-butyl-Gly-Leu tris(hydrotrifluoroacetate)
[1]; late stage modification step
  final HPLC purity: > 99%

## Nα-Methyl-Nω-{[8-(N-{2-[gallium(III)-4,7,10-tris(carboxymethyl)-1,4,7,10-tetraazacyclododecan-1-yl]acetyl})amino-3,6-dioxaoctyl]aminocarbonyl}Arg-Arg-Pro-Tyr-α-tert-butyl-Gly-Leu tris(hydrotrifluoroacetate) [23]
[1]; late stage modification step
  final HPLC purity: > 99%
  step yield: 92%

## Nα-Methyl-Nω-{[8-N-(4-aminomethyl-3-fluorobenzoyl)amino-3,6-dioxaoctyl]aminocarbonyl}Arg-Arg-Pro-Tyr-α-tert-butyl-Gly-Leu tetrakis(hydrotrifluoroacetate)
[1]; late stage modification step
  final HPLC purity: 99%
  step yield: 32%

## Nα-Methyl-Nω-{[8-N-(Nα-{2-[4,7,10-tris(carboxymethyl)-1,4,7,10-tetraazacyclododecan-1-yl]acetyl}-4-{4-fluorophenyl}-phenylalanyl)amino-3,6-dioxaoctyl]aminocarbonyl}Arg-Arg-Pro-Tyr-α-tert-butyl-Gly-Leu tetrakis(hydrotrifluoroacetate)
[1]; conjugation step
  final HPLC purity: 97%
  conjugation yield: 81%

## Nα-Methyl-Nω-{[8-N-(Nα-{2-[gallium(III)-4,7,10-tris(carboxymethyl)-1,4,7,10-tetraazacyclododecan-1-yl]acetyl}-4-{4-fluorophenyl}-phenylalanyl)amino-3,6-dioxaoctyl]aminocarbonyl}Arg-Arg-Pro-Tyr-α-tert-butyl-Gly-Leu
[1]; late stage modification step
  final HPLC purity: > 99%
  step yield: 95%

## PEPTIDE1{R.[MeArg(cbC4DOTA)].P.Y.[Tle].L}$$$$V2.0 [17]
[1]; conjugation step
  final HPLC purity: > 99%
  conjugation yield: 28%

## PEPTIDE1{R.[NMeArg(carb-C4N)].P.Y.[Tle].L}$$$$V2.0
[2]; scale 0.047 mmol
  isolated mass: 39.0 mg
  isolated yield: 59%
[1]; whole synthesis
  final HPLC purity: 99%

## PEPTIDE1{[MeArg(cbC4DOTA)].R.P.[bbdiMeTyr].[Tle].L}$$$$V2.0
[1]; conjugation step
  final HPLC purity: 98%
  conjugation yield: 79%

## PEPTIDE1{[MeArg(cbDOO-DOTA)].R.P.Y.[Tle].L}$$$$V2.0 [18]
[1]; conjugation step
  final HPLC purity: 99%
  conjugation yield: 93%

## PEPTIDE1{[MeArg].[Arg(cbC4DOTA)].P.Y.I.L}$$$$V2.0 [15]
[1]; conjugation step
  final HPLC purity: > 99%
  conjugation yield: 62%

## PEPTIDE1{[MeArg].[Arg(cbC4DOTA)].P.Y.[Tle].L}$$$$V2.0 [14]
[1]; conjugation step
  final HPLC purity: > 99%
  conjugation yield: 72%

## PEPTIDE1{[NMeArg(carb-O2C6N)].R.P.Y.[Tle].L}$$$$V2.0
[2]; scale 0.079 mmol
  isolated mass: 63.1 mg
  isolated yield: 55%
[1]; whole synthesis
  final HPLC purity: 89%

## PEPTIDE1{[NMeArg].R.P.Y.[Deg].L}$$$$V2.0
[2]; scale 0.0316 mmol
  isolated mass: 9.1 mg
  isolated yield: 25%
[1]; whole synthesis
  final HPLC purity: 99%

## PEPTIDE1{[NMeArg].R.P.Y.[S-Iva].L}$$$$V2.0
[2]; scale 0.0316 mmol
  isolated mass: 26.3 mg
  isolated yield: 72%
[1]; whole synthesis
  final HPLC purity: 98%

## PEPTIDE1{[NMeArg].R.P.Y.[aIle].L}$$$$V2.0
[2]; scale 0.0316 mmol
  isolated mass: 13.8 mg
  isolated yield: 37%
[1]; whole synthesis
  final HPLC purity: 99%

## PEPTIDE1{[NMeArg].R.P.Y.[aMeLeu].L}$$$$V2.0
[2]; scale 0.0316 mmol
  isolated mass: 26.3 mg
  isolated yield: 70%
[1]; whole synthesis
  final HPLC purity: 99%

## PEPTIDE1{[NMeArg].R.P.Y.[cBuGly].L}$$$$V2.0
[2]; scale 0.0316 mmol
  isolated mass: 27.6 mg
  isolated yield: 74%
[1]; whole synthesis
  final HPLC purity: 99%

## PEPTIDE1{[NMeArg].R.P.Y.[cPeGly].L}$$$$V2.0
[2]; scale 0.0316 mmol
  isolated mass: 26.8 mg
  isolated yield: 71%
[1]; whole synthesis
  final HPLC purity: 99%

## PEPTIDE1{[NMeArg].R.P.Y.[cPrAla].L}$$$$V2.0
[2]; scale 0.0316 mmol
  isolated mass: 17.5 mg
  isolated yield: 47%
[1]; whole synthesis
  final HPLC purity: 98%

## PEPTIDE1{[NMeArg].R.P.Y.[cPrGly].L}$$$$V2.0
[2]; scale 0.0316 mmol
  isolated mass: 25.3 mg
  isolated yield: 69%
[1]; whole synthesis
  final HPLC purity: 97%

## PEPTIDE1{[NMeArg].R.P.[D-bbMe2Tyr].I.L}$$$$V2.0
[2]; scale 0.0316 mmol
  isolated mass: 11.8 mg
  isolated yield: 31%
[1]; whole synthesis
  final HPLC purity: 99%

## PEPTIDE1{[NMeArg].R.P.[bbMe2Tyr].I.L}$$$$V2.0
[2]; scale 0.0316 mmol
  isolated mass: 16.7 mg
  isolated yield: 44%
[1]; whole synthesis
  final HPLC purity: 97%

## PEPTIDE1{[NMeArg].[Arg(carb-C4N)].P.Y.I.L}$$$$V2.0
[2]; scale 0.095 mmol
  isolated mass: 58.8 mg
  isolated yield: 44%
[1]; whole synthesis
  final HPLC purity: > 99%
